Measurements: patent US20180355044A1
No constants are given. Whether binding was seen depends on the method and setting. Some binding calls cover weakened binding; strength is not graded here. For part of these data: Sequences can lack the tags named with a protein.

T1: CLL-1 bearing a His Tag
T1 sequence: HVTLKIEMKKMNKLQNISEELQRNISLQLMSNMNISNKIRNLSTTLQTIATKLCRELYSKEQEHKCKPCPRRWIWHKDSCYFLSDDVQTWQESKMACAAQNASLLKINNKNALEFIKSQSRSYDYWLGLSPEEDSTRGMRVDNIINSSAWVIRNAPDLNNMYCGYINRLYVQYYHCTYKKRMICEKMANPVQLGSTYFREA

T2: cynomolgus CLL-1 on cynomolgus PBMC
T2 sequence: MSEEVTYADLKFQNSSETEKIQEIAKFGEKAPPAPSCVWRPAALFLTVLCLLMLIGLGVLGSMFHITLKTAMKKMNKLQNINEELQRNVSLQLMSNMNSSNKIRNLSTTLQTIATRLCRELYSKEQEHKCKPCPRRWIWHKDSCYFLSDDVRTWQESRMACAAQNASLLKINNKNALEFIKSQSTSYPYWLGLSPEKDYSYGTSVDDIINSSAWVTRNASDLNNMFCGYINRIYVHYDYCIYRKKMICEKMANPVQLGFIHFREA


Key:
[1] = substrate: T3, C type Lectin Like molecule 1 (CLL-1), human, on cells (human) (UniProt Q5QGZ9); experiment: flow cytometry, goat anti-human FITC, MFI minus isotype HuIgG1; CLL-1-expressing AML cell line, panel without title (OCI-AML-5 by the order of the legend); signal nearly lost in the lower panel (knockout cells)
T3 sequence (looked up): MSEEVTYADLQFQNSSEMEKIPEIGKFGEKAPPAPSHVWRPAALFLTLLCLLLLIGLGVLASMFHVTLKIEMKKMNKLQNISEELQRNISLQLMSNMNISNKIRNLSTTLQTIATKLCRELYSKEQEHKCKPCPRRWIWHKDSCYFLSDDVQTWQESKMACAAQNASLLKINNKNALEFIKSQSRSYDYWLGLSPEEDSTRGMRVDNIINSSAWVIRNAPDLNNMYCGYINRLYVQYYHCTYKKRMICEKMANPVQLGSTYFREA

[2] = substrate: T3, ; experiment: flow cytometry, goat anti-human FITC, MFI minus isotype HuIgG1; CLL-1-expressing AML cell line, panel without title (HL-60 by the order of the legend); signal nearly lost in the lower panel (knockout cells)
[3] = substrate: T3, ; experiment: flow cytometry on 293 cells expressing CLL-1, goat anti-human FITC
CLL-1 bearing a His Tag [4] = target: T1, CLL-1 bearing a His Tag; experiment: competitive ELISA on His-tagged CLL-1; binding of mouse M31 is detected, the named antibody is the competitor
CLL-1 bearing a His Tag [5] = target: T1, CLL-1 bearing a His Tag; experiment: ELISA on His-tagged CLL-1, transiently expressed antibody
CLL-1 bearing a His Tag [6] = target: T1, CLL-1 bearing a His Tag; experiment: ELISA on His-tagged CLL-1, purified antibody
[7] = target: T2, cynomolgus CLL-1 on cynomolgus PBMC; experiment: flow cytometry on pooled cynomolgus PBMC gated for lineage markers

Binder	binding [1]	binding [2]	binding (CLL-1 bearing a His Tag [5])	further results
chimeric M26 (human constant, mouse variable) (antibody, V domains shown) VH: EVQLQQSGPELVKPGASVKMSCKASGYTFTSYFIHWVKQKPGQGLEWIGFINPYNDGSKYNEKFKGKATLTSDKSSSTAYMELSSLTSEDSAVYYCTRDDGYYGYAMDYWGQGTLVTVSS VL: DIQMTQSPSSLSASLGERVSLTCRATQELSGYLSWLQQKPDGTIKRLIYAASTLDSGVPKRFSGNRSGSDYSLTISSLESEDFADYYCLQYAIYPYTFGGGTKLEIK	binds	binds		binding [3]: binds
VH4A+L4D (antibody, V domains shown) VH: EVQLVQSGAEVKKPGASVKMSCKASGYTFTSYFIHWVRQAPGQGLEWIGFINPYNDGSKYAQKFQGRATLTSDKSTSTVYMELSSLRSEDTAVYYCTRDDGYYGYAMDYWGQGTLVTVSS VL: DIQMTQSPSSLSASVGDRVTLTCRATQELSGYLSWLQQKPGKAIKRLIYAASTLDSGVPSRFSGNGAGTDYTLTISSLQPEDFATYYCLQYAIYPYTFGQGTKLEIK	binds	binds		binding [3]: binds
VH4A+L4DR (antibody, V domains shown) VH: EVQLVQSGAEVKKPGASVKMSCKASGYTFTSYFIHWVRQAPGQGLEWIGFINPYNDGSKYAQKFQGRATLTSDKSTSTVYMELSSLRSEDTAVYYCTRDDGYYGYAMDYWGQGTLVTVSS VL: DIQMTQSPSSLSASVGDRVTLTCRATQELSGYLSWLQQKPGKAIKRLIYAASTLDSGVPSRFSGNRAGTDYTLTISSLQPEDFATYYCLQYAIYPYTFGQGTKLEIK	binds	binds		binding [3]: binds
VH4A+ChiM26LC (antibody, V domains shown) VH: EVQLVQSGAEVKKPGASVKMSCKASGYTFTSYFIHWVRQAPGQGLEWIGFINPYNDGSKYAQKFQGRATLTSDKSTSTVYMELSSLRSEDTAVYYCTRDDGYYGYAMDYWGQGTLVTVSS VL: DIQMTQSPSSLSASLGERVSLTCRATQELSGYLSWLQQKPDGTIKRLIYAASTLDSGVPKRFSGNRSGSDYSLTISSLESEDFADYYCLQYAIYPYTFGGGTKLEIK	binds	binds		
ChiM26HC+LC (antibody, V domains shown) VH: EVQLQQSGPELVKPGASVKMSCKASGYTFTSYFIHWVKQKPGQGLEWIGFINPYNDGSKYNEKFKGKATLTSDKSSSTAYMELSSLTSEDSAVYYCTRDDGYYGYAMDYWGQGTLVTVSS VL: DIQMTQSPSSLSASLGERVSLTCRATQELSGYLSWLQQKPDGTIKRLIYAASTLDSGVPKRFSGNRSGSDYSLTISSLESEDFADYYCLQYAIYPYTFGGGTKLEIK	binds	binds		
ChM31 (antibody, V domains shown) VH: EVQLQQSGPELVKPGASVKMSCKASGYTFTSYVMHWVKQKPGQGLEWIGYINPYNDGTKYNEKFKGKATLTSDTSSSTAYMELNSLTSEDSAVYFCARPIYFDNDYFDYWGQGTTLKVSS VL: TIVLTQSPASLAVSLGQRATISCRASESVDSYGNSFMHWYQQKPGQPPKLLIYLASNLESGVPARFSGSGSRTDFTLTIDPVEADDAATYYCQQNNYDPWTFGGGTKLEIK			binds	binding (CLL-1 bearing a His Tag [4]): binds; binding (CLL-1 bearing a His Tag [6]): binds
M31-ChVH/HuVL1 (antibody, V domains shown) VH: EVQLQQSGPELVKPGASVKMSCKASGYTFTSYVMHWVKQKPGQGLEWIGYINPYNDGTKYNEKFKGKATLTSDTSSSTAYMELNSLTSEDSAVYFCARPIYFDNDYFDYWGQGTTLKVSS VL: DIVMTQSPDSLAVSLGERATINCRASESVDSYGNSFMHWYQQKPGQPPKLLIYLASNLESGVPDRFSGSGSRTDFTLTIDPVEADDAATYYCQQNNYDPWTFGGGTKLEIK			binds	
VH4A+L4 (antibody, V domains shown) VH: EVQLVQSGAEVKKPGASVKMSCKASGYTFTSYFIHWVRQAPGQGLEWIGFINPYNDGSKYAQKFQGRATLTSDKSTSTVYMELSSLRSEDTAVYYCTRDDGYYGYAMDYWGQGTLVTVSS VL: DIQMTQSPSSLSASVGDRVTLTCRATQELSGYLSWLQQKPGKAIKRLIYAASTLDSGVPSRFSGSGSGTDYTLTISSLQPEDFATYYCLQYAIYPYTFGQGTKLEIK				binding [3]: binds
M31-ChVH/HuVL2 (antibody, V domains shown) VH: EVQLQQSGPELVKPGASVKMSCKASGYTFTSYVMHWVKQKPGQGLEWIGYINPYNDGTKYNEKFKGKATLTSDTSSSTAYMELNSLTSEDSAVYFCARPIYFDNDYFDYWGQGTTLKVSS VL: DIVMTQSPDSLAVSLGERATINCRASESVDSYGNSFMHWYQQKPGQPPKLLIYLASNLESGVPARFSGSGSGTDFTLTIDPVEADDAATYYCQQNNYDPWTFGGGTKLEIK			binds	
HuM31-VH1/VL2 (antibody, V domains shown) VH: QVQLVQSGAEVKKPGASVKVSCKASGYTFTSYVMHWVRQAPGQRLEWIGYINPYNDGTKYNEKFKGKATLTSDTSTSTAYMELRSLRSDDTAVYYCARPIYFDNDYFDYWGQGTTVTVSS VL: DIVMTQSPDSLAVSLGERATINCRASESVDSYGNSFMHWYQQKPGQPPKLLIYLASNLESGVPARFSGSGSGTDFTLTIDPVEADDAATYYCQQNNYDPWTFGGGTKLEIK			binds	
HuM31-VH2/VL2 (antibody, V domains shown) VH: QVQLVQSGAEVKKPGASVKVSCKASGYTFTSYVMHWVRQAPGQRLEWIGYINPYNDGTKYNEKFKGRATLTSDTSTSTAYMELRSLRSDDTAVYYCARPIYFDNDYFDYWGQGTTVTVSS VL: DIVMTQSPDSLAVSLGERATINCRASESVDSYGNSFMHWYQQKPGQPPKLLIYLASNLESGVPARFSGSGSGTDFTLTIDPVEADDAATYYCQQNNYDPWTFGGGTKLEIK			binds	binding (CLL-1 bearing a His Tag [4]): binds; binding (CLL-1 bearing a His Tag [6]): binds
HuM31-VH3/VL2 (antibody, V domains shown) VH: QVQLVQSGAEVKKPGASVKVSCKASGYTFTSYVMHWVRQAPGRRLEWIGYINPYNDGTKYNEKFKGKATITSDTSASTAYMELSSLRSEDTAVYYCARPIYFDNDYFDYWGQGTLVTVSS VL: DIVMTQSPDSLAVSLGERATINCRASESVDSYGNSFMHWYQQKPGQPPKLLIYLASNLESGVPARFSGSGSGTDFTLTIDPVEADDAATYYCQQNNYDPWTFGGGTKLEIK			binds	binding (CLL-1 bearing a His Tag [4]): binds; binding (CLL-1 bearing a His Tag [6]): binds
HuM31-VH4/VL2 (antibody, V domains shown) VH: QVQLVQSGAEVKKPGASVKVSCKASGYTFTSYVMHWVRQAPGRRLEWIGYINPYNDGTKYNEKFKGRVTITSDTSASTAYMELSSLRSEDTAVYYCARPIYFDNDYFDYWGQGTLVTVSS VL: DIVMTQSPDSLAVSLGERATINCRASESVDSYGNSFMHWYQQKPGQPPKLLIYLASNLESGVPARFSGSGSGTDFTLTIDPVEADDAATYYCQQNNYDPWTFGGGTKLEIK			binds	binding (CLL-1 bearing a His Tag [4]): binds; binding (CLL-1 bearing a His Tag [6]): binds
M31 (antibody, V domains shown) VH: EVQLQQSGPELVKPGASVKMSCKASGYTFTSYVMHWVKQKPGQGLEWIGYINPYNDGTKYNEKFKGKATLTSDTSSSTAYMELNSLTSEDSAVYFCARPIYFDNDYFDYWGQGTTLKVSS VL: TIVLTQSPASLAVSLGQRATISCRASESVDSYGNSFMHWYQQKPGQPPKLLIYLASNLESGVPARFSGSGSRTDFTLTIDPVEADDAATYYCQQNNYDPWTFGGGTKLEIK				binding [7]: binds
